From patent publication US20240294470A1, “FRAGRANCE COMPOUNDS” (Givaudan SA, priority 2021, published 2024)
For some of these results: At least one read-out could not be matched to a standard name with certainty. For some of these results: At least one structure is not confirmed: it was looked up by name or label, or the drawing left a doubt.

What was measured:
[1] = Stability test in liquid detergent base by quantitative HPLC with UV detection; format: physicochemical; conditions: after storage over one month (30 days at 37° C.)
Procedure: Example 61: Stability test in liquid detergentThe stability of (E)-N-isopropyl-2-methylundecan-1-imine oxide (compound of Example 9) in a liquid detergent base was assessed by quantitative HPLC with UV detection.
A liquid detergent sample as prepared above containing the test substance was sampled at TO and after 30 days storage at 37° C. (300 mg diluted with 10 mL acetonitrile/high purity water 1:1), and the concentration of the precursor was assessed by quantitative HPLC-UV using an external calibration curve.

[2] = Wash test in liquid detergent: odour intensity and quality on line-dried fabric, assessed by expert panel; conditions: 0.2% wt/wt in liquid detergent, 40° C. machine wash
Procedure: A Nitrone precursor (Sample A: (E)-2-methyl-N-(4-methylbenzyl)undecan-1-imine oxide, compound of Example 1) has been compared to the aldehyde (Sample B: 2-methyl undecanal) in a wash test. • 1) Sample preparation: 0.2% by weight of the precursor or the aldehyde have been incorporated into unperfumed liquid detergent base by magnetic stirring at room temperature for 24 h., • 2) Wash test: A 40° C. machine wash cycle was performed using 55 g of the liquid detergent sample containing the test material and odour-neutral cotton/elastan mixed fabric T-shirts. […]
Further compounds of formula (I) have been tested in liquid detergent. • 1) Sample preparation: 0.2% wt/wt of the test material was incorporated in unperfumed liquid detergent base by magnetic stirring at room temperature for 24 h. • 2) Wash test: a 40° C. machine wash cycle was performed using 55 g of the liquid detergent sample containing the test material and odour-neutral cotton/elastane mixed fabric T-shirts. The wet fabric is line-dried and odour intensity and quality are assessed by a panel of 4-6 experts after 1 and 3 days on an intensity scale of 0 (odourless) to 5 (extremely strong).

SMILES	Precursor still present in the liquid detergent (recovery) [1] [%]	Fragrance score after 1 day ([2]; line-dried cotton/elastane fabric, panel of 4-6 experts, scale 0 (odourless) to 5 (extremely strong), after 1 day)	Fragrance score after 3 days ([2]; line-dried cotton/elastane fabric, panel of 4-6 experts, scale 0 (odourless) to 5 (extremely strong), after 3 days)	Odour on dry fabric ([2]; line-dried fabric, odour quality by panel)
CCCCCCCCCC(C)/C=[N+](/[O-])C(C)C (stereo not shown) [Example 9, (E)-N-isopropyl-2-methylundecan-1-imine oxide]	85			
CCCCCCCCCC(C)/C=[N+](/[O-])Cc1ccccc1 (stereo not shown) [Example 5, (E)-N-benzyl-2-methylundecan-1-imine oxide]		3.2	2.9	aldehydic
